No constants are given. Whether binding was seen depends on the method and setting. Binding seen in cells or lysates may run through a third protein. Some entries that bind do so weakly or less than the wild type.
Legend:
[1] = target: IL-12A (human (endogenous in tonsillar CD4+ T cells)) (UniProt P29459); test: co-IP; lysate of isolated human tonsillar CD4+ T cells (1 x 10^7 cells in RIPA buffer without SDS), with or without SAg-Sau stimulation for 48 h, brefeldin A for the last 4 h; immunoprecipitated with anti-human IL-12A mAb (clone 27537) on sheep anti-mouse IgG Dynabeads, 4 °C; blotted with anti-human EBI3 (clone A15058A)
[2] = target: human IL-12A expressed in CHO cells (human) (UniProt P29459); test: co-IP; secreted protein of CHO cell clones (C7, C8, C14, C15) co-transfected with human IL-12A and EBI3 plasmids; co-immunoprecipitation and Western blotting

The chains behind the UniProt entries cited, without tags or fusion partners. Residues count along the entry.
UniProt P29459, residues 23-219: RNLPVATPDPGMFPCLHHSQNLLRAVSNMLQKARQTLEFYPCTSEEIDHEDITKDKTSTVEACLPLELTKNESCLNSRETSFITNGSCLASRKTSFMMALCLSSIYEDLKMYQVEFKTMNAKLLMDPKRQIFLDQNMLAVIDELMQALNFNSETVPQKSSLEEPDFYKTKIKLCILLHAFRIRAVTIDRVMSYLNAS

| binding [1] | binding [2] | Binder |
| --- | --- | --- |
| binds | – | EBI3 (protein, UniProt Q14213 21-229) RKGPPAALTLPRVQCRASRYPIAVDCSWTLPPAPNSTSPVSFIATYRLGMAARGHSWPCLQQTPTSTSCTITDVQLFSMAPYVLNVTAVHPWGSSSSFVPFITEHIIKPDPPEGVRLSPLAERQLQVQWEPPGSWPFPEIFSLKYWIRYKRQGAARFHRVGPIEATSFILRAVRPRARYYVQVAAQDLTDYGELSDWSLPATATMSLGK |
| – | binds | human EBI3 expressed in CHO cells (protein, UniProt Q14213 21-229) RKGPPAALTLPRVQCRASRYPIAVDCSWTLPPAPNSTSPVSFIATYRLGMAARGHSWPCLQQTPTSTSCTITDVQLFSMAPYVLNVTAVHPWGSSSSFVPFITEHIIKPDPPEGVRLSPLAERQLQVQWEPPGSWPFPEIFSLKYWIRYKRQGAARFHRVGPIEATSFILRAVRPRARYYVQVAAQDLTDYGELSDWSLPATATMSLGK |

— article PMC7181393
